In PubChem BioAssay AID485314 (National Center for Advancing Translational Sciences (NCATS), 2010):
Among all 340,000 compounds or so, about 4,500 (1.3%) were called active. Inconclusive results, whose numbers are uncertain, are shown with a selection of clear calls. The call rests on the fitted dose curve; in most records, active means well fitted inhibition curve with a large enough effect; inconclusive means small, poorly fitted or top-dose-only effect, or another doubt; inactive means no such curve, though single readings can be large or run the other way. A potency beside an inconclusive call is a rough fit, not a confirmed value.

The molecules below were run against DNA polymerase beta (Homo sapiens) (UniProt P06746) (assay: qHTS Assay for Inhibitors of DNA Polymerase Beta). Conditions: Pol beta primer extension/strand displacement, fluorescence kinetic; activity change, negative = inhibition: at 114 µM (top of the series).
Procedure, shortened: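 Preincubation: enzyme (10 nM) with compound, 15 min, RT. Reaction: substrate added to 50 nM final. Reads: 0 and 10 min. Analysis: normalized, Hill fit.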
On the % scale 0 is the no-effect control and ±100 the full control effect; potency means the concentration at half of the fitted maximal effect.

**Q.** With `O=C(CSC(=S)N1CCOCC1)c1ccccc1` as the molecule, how does the “activity change, negative = inhibition” value read?
**A.** The value was inactive: 2.75%.

**Q.** `Cc1ccc(C(=O)CSc2nccn2-c2ccccc2)cc1` was tested. Which Potency did it give?
**A.** The Potency was active: 56.2 µM.

**Q.** `CC(C)CC(=O)Nc1ccc(C(=O)CN2CCN(c3ccc(O)cc3)CC2)cc1` was tested. Which Potency did it give?
**A.** Its Potency is inconclusive: 39.8 µM [inhibitor, full curve].

**Q.** `O=C(CSCc1ccc(Cl)cc1)N/N=C/c1ccc(OCC(=O)Nc2ccccc2)cc1` was tested. Which Potency did it give?
**A.** The Potency was active: 79.4 µM.

**Q.** For `C=C1CCC(C)C(C)(CCC2=CCOC2=O)C/C=C\C=C/1C(=O)O` (stereo not given), which “activity change, negative = inhibition” value is on record?
**A.** Its value is inactive: 2.19%.

**Q.** How did the Potency turn out when `Cc1cccn2cc(-c3ccc(S(=O)(=O)N4CCCCC4)cc3)nc12` was run?
**A.** Its Potency is inconclusive: 10 µM [inhibitor, partial curve, poor fit].

**Q.** With `CCCOC(=O)/C(=C\C=C\c1ccccc1)NC(=O)c1ccccc1` as the molecule, how does the Potency read?
**A.** The Potency was inconclusive: 22.4 µM [inhibitor, partial curve, poor fit].

**Q.** For `CCOC(=O)c1cnc2ccc(C(=O)OC)cc2c1Nc1ccc2c(c1)OCCO2`, which Potency is on record?
**A.** Its Potency is inconclusive: 3.98 µM [inhibitor, single point].

**Q.** Which Potency does the source give for `CC(=O)c1cnc(N2CCCCC2)nc1C` here?
**A.** The Potency was inconclusive: 0.224 µM [inhibitor, full curve].

**Q.** How did the Potency turn out when `CCOc1ccc(-c2n[nH]c3c2C(c2ccccc2OC)N(c2ccc(Br)cc2)C3=O)cc1` (stereo not given) was run?
**A.** The Potency was inconclusive: 0.708 µM [inhibitor, full curve].

**Q.** Which Potency does the source give for `Cc1cc(C(=O)N/N=C/c2cc(N=Nc3ccccc3)ccc2O)n[nH]1` here?
**A.** The Potency was active: 25.1 µM.

**Q.** Which “activity change, negative = inhibition” value does the source give for `COc1ccc(C2c3c(n(C)c4ccccc34)C(=O)N2CC(=O)Nc2ccc(Cl)cc2)cc1` (stereo not given) here?
**A.** Its value is inactive: -9.88%.

**Q.** `CCOC(=O)c1c(C)oc2ncnc(NCCc3ccccc3)c12` was tested. Which Potency did it give?
**A.** The Potency was inconclusive: 89.1 µM [inhibitor, single point].

**Q.** With `Cc1ccc(/C=N/n2c(-c3ccncc3)n[nH]c2=S)o1` as the molecule, how does the Potency read?
**A.** The Potency was inconclusive: 1 µM [inhibitor, full curve, poor fit].

**Q.** Which Potency does the source give for `Cc1ccc(C)c(OCc2nnc(NC(=O)c3ccco3)s2)c1` here?
**A.** The Potency was inconclusive: 11.2 µM [inhibitor, full curve].

**Q.** How did the “activity change, negative = inhibition” value turn out when `COC(=O)c1cc2oc(C)cc2n1Cc1c(C)cc(C)cc1C` was run?
**A.** Its value is inactive: 27.7%.

**Q.** For `CN(C)c1ccc(P(=O)(OC2CCCCC2)C(O)c2ccncc2)cc1` (stereo not given), which Potency is on record?
**A.** The Potency was inconclusive: 89.1 µM [inhibitor, single point].

**Q.** How did the Potency turn out when `NC(=O)CC1Nc2cccc3cccc(c23)NC1=O` (stereo not given) was run?
**A.** The Potency was active: 6.31 µM.

**Q.** How did the Potency turn out when `CCCCNC(=S)NCc1ccc2[nH]c3c(c2c1)CCCC3` was run?
**A.** Its Potency is inconclusive: 56.2 µM [inhibitor, single point].

**Q.** Which Potency does the source give for `O=c1cc2c(nn1Cc1cccc([N+](=O)[O-])c1)-c1ccccc1CC2` here?
**A.** The Potency was inconclusive: 56.2 µM [inhibitor, partial curve].
